This assay deals with HPK1 kinase domain T165E/S171E (KD TSEE WT) (UniProt Q92918). As to the kind of experiment: SPR; Biacore T200; KD TSEE WT amine-coupled (about 300 RU) on a C1 chip; WT-CHD and CHD mutants injected at 2 μM for 90 s; 20 mM HEPES, 300 mM NaCl, 0.1% polysorbate 20, 0.5 mM TCEP, pH 7.4; 25 °C; both purified. In general terms: Surface plasmon resonance follows binding to a sensor surface in real time, without labels.

Amino acid sequences for entries named in this document (tags omitted). A change or cut given only in a name is not applied to a line headed by its entry. Chains listed by the source or under a name are the forms on record and can include a tag or linker.
HPK1 kinase domain T165E/S171E (Q92918, form named): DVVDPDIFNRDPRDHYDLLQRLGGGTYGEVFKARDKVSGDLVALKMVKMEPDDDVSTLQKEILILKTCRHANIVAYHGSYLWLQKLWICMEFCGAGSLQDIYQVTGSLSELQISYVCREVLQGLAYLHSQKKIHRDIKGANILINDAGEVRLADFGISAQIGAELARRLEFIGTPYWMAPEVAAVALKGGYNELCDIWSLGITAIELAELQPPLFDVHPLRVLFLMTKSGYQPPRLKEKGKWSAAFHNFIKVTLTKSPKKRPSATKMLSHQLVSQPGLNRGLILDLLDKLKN

These are yes or no findings as the source states them, for the method shown.

Take “HPK1 CHD K558E ΔK574-K594 (from UniProt Q92918-2) (domain or fragment)”: the binding entry was “no binding (tested: 2 μM)”.
For the substance “HPK1 CHD ΔK574-K594 (from UniProt Q92918-2) (domain or fragment)”, the binding result is on record as “no binding (tested: 2 μM)”.

Source of the values: PMC11066036.
